# Results are given in words; binding and its absence hold for the method and conditions named. For part of these data: Binding can be weak; no strength is given. For part of these data: Where a sequence is shown, tags or fusion partners need not be part of it.
# T1: GAL4BD-DOG1 (Arabidopsis) (UniProt A0SVK0)
# T1 sequence: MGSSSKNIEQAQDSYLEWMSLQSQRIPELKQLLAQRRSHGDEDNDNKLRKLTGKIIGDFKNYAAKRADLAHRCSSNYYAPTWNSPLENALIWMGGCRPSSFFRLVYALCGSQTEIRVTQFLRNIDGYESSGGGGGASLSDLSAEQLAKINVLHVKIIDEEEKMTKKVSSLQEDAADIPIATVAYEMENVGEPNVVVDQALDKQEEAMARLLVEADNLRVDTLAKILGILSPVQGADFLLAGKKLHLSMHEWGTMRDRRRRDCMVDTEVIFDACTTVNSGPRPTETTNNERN
# T2: DOG1-Like 3 (DOGL3), yeast two-hybrid fusion (Arabidopsis) (UniProt Q58FV0)
# T2 sequence: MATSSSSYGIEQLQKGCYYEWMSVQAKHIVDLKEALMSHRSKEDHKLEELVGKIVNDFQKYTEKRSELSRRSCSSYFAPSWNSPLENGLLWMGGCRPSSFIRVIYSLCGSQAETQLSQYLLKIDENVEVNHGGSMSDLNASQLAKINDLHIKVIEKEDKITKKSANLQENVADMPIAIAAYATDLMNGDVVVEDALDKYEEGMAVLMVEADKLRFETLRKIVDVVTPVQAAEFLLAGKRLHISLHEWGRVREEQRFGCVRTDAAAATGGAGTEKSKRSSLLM
# T3: GAL4AD-AHG1 (Arabidopsis) (UniProt Q9FLI3)
# T3 sequence: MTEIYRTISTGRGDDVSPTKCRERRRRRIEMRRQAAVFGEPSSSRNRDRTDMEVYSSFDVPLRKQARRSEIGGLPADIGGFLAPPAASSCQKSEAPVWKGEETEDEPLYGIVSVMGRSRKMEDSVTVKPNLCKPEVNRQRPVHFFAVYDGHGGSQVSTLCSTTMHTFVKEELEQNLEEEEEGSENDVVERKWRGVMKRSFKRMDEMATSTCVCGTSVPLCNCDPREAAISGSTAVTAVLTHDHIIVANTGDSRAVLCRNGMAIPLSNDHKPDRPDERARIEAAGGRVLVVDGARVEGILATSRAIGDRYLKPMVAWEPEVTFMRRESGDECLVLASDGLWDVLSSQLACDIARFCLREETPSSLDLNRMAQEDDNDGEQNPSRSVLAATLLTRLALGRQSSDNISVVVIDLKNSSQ
# What was measured:
# Assay in all cases: two-hybrid; Matchmaker Gold, Y2H gold strain; fusions from pASGW-attR and pACTGW-attR (GAL4BD-DOG1 and GAL4AD-PP2Cs in Fig. 4a); growth on QDO/A plates, 7 days
# [1] = target: T1, GAL4BD-DOG1 (Arabidopsis)
# [2] = target: T2, DOG1-Like 3 (DOGL3), yeast two-hybrid fusion (Arabidopsis)
# [3] = target: T3, GAL4AD-AHG1 (Arabidopsis)
# [4] = target: DOGL5.2, yeast two-hybrid fusion (Arabidopsis)
binding [1],binding [4],Molecule,further results
binds,–,GAL4AD-HAI3 (Arabidopsis) (enzyme),–
no binding,–,GAL4AD-HAB1 (Arabidopsis) (enzyme),binding [2]: no binding
–,–,"FVE/MSI4, yeast two-hybrid fusion (Arabidopsis)",binding [3]: binds
–,binds,"GAL4AD-AHG1 (enzyme, UniProt Q9FLI3 1-416) MTEIYRTISTGRGDDVSPTKCRERRRRRIEMRRQAAVFGEPSSSRNRDRTDMEVYSSFDVPLRKQARRSEIGGLPADIGGFLAPPAASSCQKSEAPVWKGEETEDEPLYGIVSVMGRSRKMEDSVTVKPNLCKPEVNRQRPVHFFAVYDGHGGSQVSTLCSTTMHTFVKEELEQNLEEEEEGSENDVVERKWRGVMKRSFKRMDEMATSTCVCGTSVPLCNCDPREAAISGSTAVTAVLTHDHIIVANTGDSRAVLCRNGMAIPLSNDHKPDRPDERARIEAAGGRVLVVDGARVEGILATSRAIGDRYLKPMVAWEPEVTFMRRESGDECLVLASDGLWDVLSSQLACDIARFCLREETPSSLDLNRMAQEDDNDGEQNPSRSVLAATLLTRLALGRQSSDNISVVVIDLKNSSQ",–
–,no binding,"GAL4AD-HAB2 (enzyme, UniProt Q9LNP9 1-511) MEEISPAVALTLGLANTMCDSGISSTFDISELENVTDAADMLCNQKRQRYSNGVVDCIMGSVSEEKTLSEVRSLSSDFSVTVQESEEDEPLVSDATIISEGLIVVDARSEISLPDTVETDNGRVLATAIILNETTIEQVPTAEVLIASLNHDVNMEVATSEVVIRLPEENPNVARGSRSVYELECIPLWGTISICGGRSEMEDAVRALPHFLKIPIKMLMGDHEGMSPSLPYLTSHFFGVYDGHGGAQVADYCHDRIHSALAEEIERIKEELCRRNTGEGRQVQWEKVFVDCYLKVDDEVKGKINRPVVGSSDRMVLEAVSPETVGSTAVVALVCSSHIIVSNCGDSRAVLLRGKDSMPLSVDHKPDREDEYARIEKAGGKVIQWQGARVSGVLAMSRSIGDQYLEPFVIPDPEVTFMPRAREDECLILASDGLWDVMSNQEACDFARRRILAWHKKNGALPLAERGVGEDQACQAAAEYLSKLAIQMGSKDNISIIVIDLKAQRKFKTRS",–

# From article PMC5989226 (Nature Communications, 2018)
